Reference: PubChem BioAssay AID1224828 (NIAID, 2016)
The whole screen tested about 17,000 reagents; below is a random part of them. Of all reagents, 762 (4.5%) are marked active. 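Active calls include both raised and lowered p65 entry, mostly lowered; wells with fewer than 50 cells lack a z-score.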 Raw values are not corrected between plates. Unmarked entries are inactive. A reagent listed more than once was tested more than once; the source does not tell the runs apart.

- Test: 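Regulators linking TLR4 signalling to p65 nuclear translocation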 (primary screen)
- Cells: mouse RAW264.7 G9 macrophage reporter cells (GFP-p65, Tnf promoter-mCherry)
- Reagents: siRNA pool against mouse genes, 100 nM
- Time to read-out: 2 days siRNA transfection, then 40 min LPS before fixation
- Challenge: LPS (Salmonella minnesota R595) at 10 ng/ml
- Measurement: 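Microscopy ratio of nuclear to perinuclear-ring GFP-p65 signal, scaled to the plate median; gene score is the average of two replicate robust z-scores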
- Scale: p65 translocation robust z-score: higher = more nuclear NF-kappaB p65 after LPS than the plate median; nuclear/cytoplasmic p65 ratio: higher = more nuclear NF-kappaB p65
- Call rule: 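Called active when z exceeds 3.3 or falls under -1.56 (median of Tlr4 controls), giving activity score of at least 50; no calls for control wells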
- Meaning of the calls: active = hit (p65 shift raised or lowered); inactive = no clear change

gene,p65 translocation robust z-score,"nuclear/cytoplasmic p65 ratio, rep 1","nuclear/cytoplasmic p65 ratio, rep 2",low cell count flag
Oasl2 (2'-5' oligoadenylate synthetase-like 2),-0.28,1.65,1.51,enough cells to score
4833414E09Rik (RIKEN cDNA 4833414E09 gene),,1.41,1.55,fewer than 50 cells per well; well left out of scoring
Atxn7l1 (ataxin 7-like 1),-0.49,1.2,1.23,enough cells to score
Ddx39b (DEAD box helicase 39b),-0.46,1.53,1.74,enough cells to score
"Gucy1b1 (guanylate cyclase 1, soluble, beta 1)",0.89,1.59,1.45,enough cells to score
"Ptpn2 (protein tyrosine phosphatase, non-receptor type 2)",0.51,1.52,1.52,enough cells to score
Ranbp3 (RAN binding protein 3),0.57,1.71,1.69,enough cells to score
Ugp2 (UDP-glucose pyrophosphorylase 2),1.01,1.84,1.52,enough cells to score
Stk35 (serine/threonine kinase 35),0.82,1.78,1.52,enough cells to score
Stk35 (serine/threonine kinase 35),,1.57,1.24,fewer than 50 cells per well; well left out of scoring
Smim10l2a (small integral membrane protein 10 like 2A),0.41,1.39,1.55,enough cells to score
Rps26 (ribosomal protein S26),-0.3,1.37,1.19,enough cells to score
Masp1 (MBL associated serine protease 1),1.52,1.95,1.77,enough cells to score
B830004H01Rik (RIKEN cDNA B830004H01 gene),-0.51,1.49,1.77,enough cells to score
"Myl12b (myosin, light chain 12B, regulatory)",0.26,1.84,1.73,enough cells to score
Tlr2 (toll-like receptor 2),-0.58,1.43,1.45,enough cells to score
"Ppp4r2 (protein phosphatase 4, regulatory subunit 2)",0.12,1.5,1.44,enough cells to score
Smoc1 (SPARC related modular calcium binding 1),,1.54,1.08,fewer than 50 cells per well; well left out of scoring
Emg1 (EMG1 N1-specific pseudouridine methyltransferase),-0.11,1.72,1.54,enough cells to score
Kctd5 (potassium channel tetramerisation domain containing 5),1.89,1.85,1.66,enough cells to score
"Lnpk (lunapark, ER junction formation factor)",1.01,1.76,1.79,enough cells to score
"Fnta (farnesyltransferase, CAAX box, alpha)",,1.25,1.29,fewer than 50 cells per well; well left out of scoring

Entries above whose gene name starts with S or s:
gene,p65 translocation robust z-score,"nuclear/cytoplasmic p65 ratio, rep 1","nuclear/cytoplasmic p65 ratio, rep 2",low cell count flag
Stk35 (serine/threonine kinase 35),0.82,1.78,1.52,enough cells to score
Stk35 (serine/threonine kinase 35),,1.57,1.24,fewer than 50 cells per well; well left out of scoring
Smim10l2a (small integral membrane protein 10 like 2A),0.41,1.39,1.55,enough cells to score
Smoc1 (SPARC related modular calcium binding 1),,1.54,1.08,fewer than 50 cells per well; well left out of scoring

Additional entries follow:
gene,p65 translocation robust z-score,"nuclear/cytoplasmic p65 ratio, rep 1","nuclear/cytoplasmic p65 ratio, rep 2",low cell count flag
Pramel32 (PRAME like 32),1.48,1.87,1.96,enough cells to score
Or6n2 (olfactory receptor family 6 subfamily N member 2),0.27,1.48,1.08,enough cells to score
Or5p60 (olfactory receptor family 5 subfamily P member 60),,1.41,1.28,fewer than 50 cells per well; well left out of scoring
Slc30a8,,1.07,1.26,fewer than 50 cells per well; well left out of scoring
Nsun2 (NOL1/NOP2/Sun domain family member 2),-1.53,1.33,1.55,enough cells to score
"Nfe2l2 (nuclear factor, erythroid derived 2, like 2)",-1.76 (active),1.19,1.14,enough cells to score
Hgfac (hepatocyte growth factor activator),-0.52,1.39,1.29,enough cells to score
Sprr1b (small proline-rich protein 1B),-1.22,1.26,1.13,enough cells to score
Cdkal1 (CDK5 regulatory subunit associated protein 1-like 1),0.72,1.54,2.08,enough cells to score
"Il10rb (interleukin 10 receptor, beta)",1.4,1.63,1.54,enough cells to score
Mrpl23 (mitochondrial ribosomal protein L23),0.06,1.88,1.53,enough cells to score
Nipsnap3b (nipsnap homolog 3B),1.43,2.08,1.61,enough cells to score
Napepld (N-acyl phosphatidylethanolamine phospholipase D),0.49,1.64,1.8,enough cells to score
Mipep (mitochondrial intermediate peptidase),2.16,1.76,1.59,enough cells to score
"Eif3j1 (eukaryotic translation initiation factor 3, subunit J1)",-1.13,1.39,1.15,enough cells to score
Mansc4 (MANSC domain containing 4),0.49,1.45,1.6,enough cells to score
Pard3 (par-3 family cell polarity regulator),-0.05,1.41,1.43,enough cells to score
Copb2 (COPI coat complex subunit beta 2),,1.5,1.71,fewer than 50 cells per well; well left out of scoring
"Catsper2 (cation channel, sperm associated 2)",0.96,1.49,1.5,enough cells to score
Ncoa4 (nuclear receptor coactivator 4),-0.86,1.32,1.27,enough cells to score
Or2l5 (olfactory receptor family 2 subfamily L member 5),2.53,2.02,1.73,enough cells to score
Opa3 (optic atrophy 3),-0.53,1.36,1.33,enough cells to score
Lbh (limb-bud and heart),1.95,1.72,1.79,enough cells to score
Glud1 (glutamate dehydrogenase 1),-0.28,1.31,1.42,enough cells to score
S100a9 (S100 calcium binding protein A9 (calgranulin B)),-0.66,1.47,1.38,enough cells to score
Ciao2b (cytosolic iron-sulfur assembly component 2B),0.01,1.65,1.35,enough cells to score
Tbx2 (T-box 2),-1.52,1.24,1.37,enough cells to score
"Rnase9 (ribonuclease, RNase A family, 9 (non-active))",0.37,1.48,1.25,enough cells to score
Tspear (thrombospondin type laminin G domain and EAR repeats),0.93,1.55,1.66,enough cells to score
Plek2 (pleckstrin 2),-0.25,1.51,1.33,enough cells to score
"Ptpmt1 (protein tyrosine phosphatase, mitochondrial 1)",0.81,1.66,1.81,enough cells to score
"Prkaa2 (protein kinase, AMP-activated, alpha 2 catalytic subunit)",-1.29,1.47,1.22,enough cells to score
"Gjb1 (gap junction protein, beta 1)",0.1,1.12,1.4,enough cells to score
Slc26a10,1.72,1.82,2.09,enough cells to score
Or6c2b (olfactory receptor family 6 subfamily C member 2B),,1.35,1.12,fewer than 50 cells per well; well left out of scoring
Nkx6-2 (NK6 homeobox 2),-1.44,1.5,1.32,enough cells to score
"Igsf3 (immunoglobulin superfamily, member 3)",-1.25,1.36,1.18,enough cells to score
